{
  "source": "patent US20240082118A1",
  "about": "“TOPICAL COMPOSITIONS AND METHODS OF PREPARING THE SAME” (LANDA LABS (2012) LTD., priority 2021, published 2024)",
  "note": "Structures can show the parent of a compound that is named as a salt. Some entries share one result that the patent states for a list of compounds.",
  "data": [
    {"test": "Viscosity by thermo-rheometer, 20-80° C., shear rate 10 sec^−1", "type": "physicochemical", "settings": "1:1 weight ratio with PCL-14, measured at 50° C.", "values": [
      {"molecule": "CCCCCCCC(=O)O", "note": "[caprylic acid]", "second viscosity of PCL-14 plasticized with the non-volatile liquid": "less than 10^4 mPa·s"},
      {"molecule": "CC(C)=CCCC(C)CCO", "note": "(stereo not drawn) [citronellol]", "second viscosity of PCL-14 plasticized with the non-volatile liquid": "less than 10^4 mPa·s"},
      {"molecule": "O=C(O)C1CCCCC1", "note": "[cyclohexane-carboxylic acid]", "second viscosity of PCL-14 plasticized with the non-volatile liquid": "less than 10^4 mPa·s"},
      {"molecule": "CCCCOC(=O)CCCCC(=O)OCCCC", "note": "[dibutyl adipate]", "second viscosity of PCL-14 plasticized with the non-volatile liquid": "less than 10^4 mPa·s"},
      {"molecule": "CC(C)c1cccc(=O)c(O)c1", "note": "[hinokitiol]", "second viscosity of PCL-14 plasticized with the non-volatile liquid": "less than 10^4 mPa·s"},
      {"molecule": "C=CC(C)(O)CCC=C(C)C", "note": "(stereo not drawn) [linalool]", "second viscosity of PCL-14 plasticized with the non-volatile liquid": "less than 10^4 mPa·s"},
      {"molecule": "CC1CCC(C(C)C)C(O)C1", "note": "(stereo not drawn) [menthol]", "second viscosity of PCL-14 plasticized with the non-volatile liquid": "less than 10^4 mPa·s"},
      {"molecule": "CC1COC(=O)O1", "note": "(stereo not drawn) [propylene carbonate]", "second viscosity of PCL-14 plasticized with the non-volatile liquid": "less than 10^4 mPa·s"},
      {"molecule": "Cc1ccc(C(C)C)c(O)c1", "note": "[thymol]", "second viscosity of PCL-14 plasticized with the non-volatile liquid": "less than 10^4 mPa·s"},
      {"molecule": "CCOC(=O)CC(O)(CC(=O)OCC)C(=O)OCC", "note": "[triethyl citrate]", "second viscosity of PCL-14 plasticized with the non-volatile liquid": "less than 10^4 mPa·s"},
      {"molecule": "dicaprylyl carbonate", "second viscosity of PCL-14 plasticized with the non-volatile liquid": "less than 10^4 mPa·s"},
      {"molecule": "terpinol", "second viscosity of PCL-14 plasticized with the non-volatile liquid": "less than 10^4 mPa·s"}
    ]}
  ]
}
